A short description of data set [1]: Release of BSA and IgG from 10 wt % PEG 3400 DA gels without ligand. It counts as physicochemical. The note with it: 10 wt % PEG 3400 DA gel, 5% drug loading, no ligand.
Data set [2] can be described thus: Release of IgG from 10% PEG 3400 DA gels copolymerized with MAH ligand. The note with it: gel containing no ligand, 5 wt % drug loading. Type of data set: physicochemical.

Consider 1 substance from patent US8128952B2, “Ligand-mediated controlled drug delivery” (Clemson University Research Foundation, priority 2005, dated 2012).

Regarding immunoglobulin G [IgG], the “initial burst (cumulative percentage release)” value in data set [1] is around 12%. The “cumulative (fractional) release by the end of the first 6 hours” value in data set [2] is around 28%.
